Some of the results follow.
Compound: Cc1cc(ccc1-c1ccccc1)C(=O)N1CCCN(CC1)C(=O)CCl [compound 10]
Assay: probe-labelled cysteine peptide fold change vs DMSO (competition) (log2 fold change); higher = less target engagement (more negative = stronger competition)
Conditions: THP-1, incubation time: 4 h
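Further: competitive profiling in live THP-1 cells: cysteine peptides tagged with an iodoacetamide desthiobiotin (IA-DTB) probe, intensity after compound treatment relative to DMSO-treated cells.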

Amino acid sequences for entries named in this document (tags omitted). A change or cut given only in a name is not applied to a line headed by its entry.
UniProt P00966: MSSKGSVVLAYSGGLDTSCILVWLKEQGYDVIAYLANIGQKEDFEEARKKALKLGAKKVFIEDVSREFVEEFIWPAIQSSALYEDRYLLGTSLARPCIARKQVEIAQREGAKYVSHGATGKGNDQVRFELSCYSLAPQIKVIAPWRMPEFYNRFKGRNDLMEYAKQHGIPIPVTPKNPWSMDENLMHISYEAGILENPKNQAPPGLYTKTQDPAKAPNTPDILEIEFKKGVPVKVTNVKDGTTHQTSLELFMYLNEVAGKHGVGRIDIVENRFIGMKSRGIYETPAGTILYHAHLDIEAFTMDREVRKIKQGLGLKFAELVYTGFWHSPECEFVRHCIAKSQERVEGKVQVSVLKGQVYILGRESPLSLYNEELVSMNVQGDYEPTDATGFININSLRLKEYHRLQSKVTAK
UniProt P98194: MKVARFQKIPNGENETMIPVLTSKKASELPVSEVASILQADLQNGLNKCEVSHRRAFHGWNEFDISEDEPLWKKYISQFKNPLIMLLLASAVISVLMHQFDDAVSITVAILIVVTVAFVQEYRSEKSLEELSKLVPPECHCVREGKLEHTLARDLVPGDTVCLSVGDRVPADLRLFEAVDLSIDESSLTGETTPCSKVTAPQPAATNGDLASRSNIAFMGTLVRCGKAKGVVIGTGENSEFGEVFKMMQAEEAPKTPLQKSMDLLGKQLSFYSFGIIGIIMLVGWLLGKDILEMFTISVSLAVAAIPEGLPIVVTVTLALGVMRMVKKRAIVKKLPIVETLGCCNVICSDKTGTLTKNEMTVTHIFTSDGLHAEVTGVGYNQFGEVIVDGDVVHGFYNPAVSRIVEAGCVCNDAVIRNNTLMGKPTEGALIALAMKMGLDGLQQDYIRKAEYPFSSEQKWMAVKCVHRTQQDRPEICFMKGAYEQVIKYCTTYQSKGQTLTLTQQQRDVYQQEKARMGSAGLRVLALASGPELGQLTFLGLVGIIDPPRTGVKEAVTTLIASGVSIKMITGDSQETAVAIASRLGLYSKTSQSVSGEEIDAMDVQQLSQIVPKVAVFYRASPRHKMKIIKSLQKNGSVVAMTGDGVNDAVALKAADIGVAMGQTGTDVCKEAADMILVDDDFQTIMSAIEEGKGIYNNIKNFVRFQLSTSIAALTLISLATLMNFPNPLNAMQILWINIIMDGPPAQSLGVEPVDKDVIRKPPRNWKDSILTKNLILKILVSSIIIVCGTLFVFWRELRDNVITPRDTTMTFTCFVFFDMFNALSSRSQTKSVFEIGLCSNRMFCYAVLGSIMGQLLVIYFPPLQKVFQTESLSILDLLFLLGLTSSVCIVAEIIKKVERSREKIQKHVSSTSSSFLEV
UniProt Q9HD20: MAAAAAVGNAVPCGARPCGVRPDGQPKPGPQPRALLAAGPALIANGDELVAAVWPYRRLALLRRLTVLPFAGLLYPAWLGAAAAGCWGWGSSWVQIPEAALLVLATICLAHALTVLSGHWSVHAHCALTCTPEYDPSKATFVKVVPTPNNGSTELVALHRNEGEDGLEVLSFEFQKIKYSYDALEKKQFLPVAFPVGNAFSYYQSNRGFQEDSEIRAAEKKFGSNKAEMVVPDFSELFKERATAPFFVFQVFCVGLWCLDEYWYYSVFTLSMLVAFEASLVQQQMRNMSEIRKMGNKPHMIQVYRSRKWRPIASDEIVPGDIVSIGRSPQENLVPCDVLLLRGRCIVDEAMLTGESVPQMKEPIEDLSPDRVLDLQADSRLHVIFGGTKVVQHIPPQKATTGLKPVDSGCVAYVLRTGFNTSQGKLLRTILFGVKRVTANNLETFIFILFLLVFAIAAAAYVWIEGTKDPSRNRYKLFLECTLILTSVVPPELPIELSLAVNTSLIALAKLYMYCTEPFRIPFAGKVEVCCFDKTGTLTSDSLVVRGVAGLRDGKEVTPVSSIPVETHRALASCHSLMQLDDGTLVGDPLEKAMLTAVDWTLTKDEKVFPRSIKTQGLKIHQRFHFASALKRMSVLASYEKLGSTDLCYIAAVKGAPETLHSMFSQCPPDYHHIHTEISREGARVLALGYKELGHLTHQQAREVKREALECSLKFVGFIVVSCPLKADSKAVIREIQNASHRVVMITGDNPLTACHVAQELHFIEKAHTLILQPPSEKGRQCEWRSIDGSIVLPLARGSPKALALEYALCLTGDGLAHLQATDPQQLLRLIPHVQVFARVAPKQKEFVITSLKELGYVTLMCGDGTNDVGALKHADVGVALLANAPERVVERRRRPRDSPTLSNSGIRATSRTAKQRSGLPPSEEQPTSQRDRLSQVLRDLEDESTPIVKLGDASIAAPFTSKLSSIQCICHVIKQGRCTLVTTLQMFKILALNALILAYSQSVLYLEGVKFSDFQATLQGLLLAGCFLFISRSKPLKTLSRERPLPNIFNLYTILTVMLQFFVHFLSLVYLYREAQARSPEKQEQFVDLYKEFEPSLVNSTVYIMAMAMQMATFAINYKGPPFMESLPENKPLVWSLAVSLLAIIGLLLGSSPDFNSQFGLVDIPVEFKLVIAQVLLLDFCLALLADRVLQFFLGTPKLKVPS
UniProt O95352: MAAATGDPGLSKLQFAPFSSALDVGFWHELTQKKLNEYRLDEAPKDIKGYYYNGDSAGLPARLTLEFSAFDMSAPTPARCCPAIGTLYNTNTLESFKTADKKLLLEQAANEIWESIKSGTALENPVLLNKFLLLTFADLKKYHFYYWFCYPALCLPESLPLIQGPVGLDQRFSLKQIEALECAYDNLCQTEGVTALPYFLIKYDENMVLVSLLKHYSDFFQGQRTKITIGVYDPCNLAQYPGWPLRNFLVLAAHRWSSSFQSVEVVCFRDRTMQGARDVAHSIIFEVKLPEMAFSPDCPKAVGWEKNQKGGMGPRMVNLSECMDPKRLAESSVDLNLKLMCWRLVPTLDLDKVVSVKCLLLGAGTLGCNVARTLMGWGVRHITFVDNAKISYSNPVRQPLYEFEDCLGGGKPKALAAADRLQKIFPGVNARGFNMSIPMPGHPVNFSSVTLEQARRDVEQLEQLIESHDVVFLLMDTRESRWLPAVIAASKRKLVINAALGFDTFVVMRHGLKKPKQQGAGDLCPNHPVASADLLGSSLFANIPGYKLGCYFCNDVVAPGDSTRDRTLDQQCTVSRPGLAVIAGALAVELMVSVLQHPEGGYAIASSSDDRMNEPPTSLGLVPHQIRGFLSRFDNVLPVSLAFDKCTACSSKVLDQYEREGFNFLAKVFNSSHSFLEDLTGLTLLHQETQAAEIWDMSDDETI
UniProt Q7Z3C6: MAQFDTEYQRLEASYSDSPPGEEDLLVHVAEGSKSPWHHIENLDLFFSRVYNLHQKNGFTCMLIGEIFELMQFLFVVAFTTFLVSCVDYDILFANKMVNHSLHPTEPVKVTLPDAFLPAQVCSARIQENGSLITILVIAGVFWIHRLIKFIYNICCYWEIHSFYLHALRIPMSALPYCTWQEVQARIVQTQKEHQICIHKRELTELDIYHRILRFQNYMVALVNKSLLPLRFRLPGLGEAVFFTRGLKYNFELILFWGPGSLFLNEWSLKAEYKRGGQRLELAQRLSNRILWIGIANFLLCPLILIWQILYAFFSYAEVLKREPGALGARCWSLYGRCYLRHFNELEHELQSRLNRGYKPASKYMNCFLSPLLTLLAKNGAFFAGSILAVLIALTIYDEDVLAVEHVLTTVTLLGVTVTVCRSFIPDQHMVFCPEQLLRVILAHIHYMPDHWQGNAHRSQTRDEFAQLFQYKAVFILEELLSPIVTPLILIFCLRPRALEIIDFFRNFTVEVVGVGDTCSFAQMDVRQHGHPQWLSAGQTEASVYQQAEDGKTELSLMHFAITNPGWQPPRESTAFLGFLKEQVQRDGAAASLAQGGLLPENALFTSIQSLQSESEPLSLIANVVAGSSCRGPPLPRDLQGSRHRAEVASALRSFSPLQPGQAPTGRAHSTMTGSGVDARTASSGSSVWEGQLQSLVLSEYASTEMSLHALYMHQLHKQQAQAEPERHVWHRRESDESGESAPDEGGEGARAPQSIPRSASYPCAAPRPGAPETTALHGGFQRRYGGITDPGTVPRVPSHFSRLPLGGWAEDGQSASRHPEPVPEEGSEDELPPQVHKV
UniProt P21281, whole entry, looked up: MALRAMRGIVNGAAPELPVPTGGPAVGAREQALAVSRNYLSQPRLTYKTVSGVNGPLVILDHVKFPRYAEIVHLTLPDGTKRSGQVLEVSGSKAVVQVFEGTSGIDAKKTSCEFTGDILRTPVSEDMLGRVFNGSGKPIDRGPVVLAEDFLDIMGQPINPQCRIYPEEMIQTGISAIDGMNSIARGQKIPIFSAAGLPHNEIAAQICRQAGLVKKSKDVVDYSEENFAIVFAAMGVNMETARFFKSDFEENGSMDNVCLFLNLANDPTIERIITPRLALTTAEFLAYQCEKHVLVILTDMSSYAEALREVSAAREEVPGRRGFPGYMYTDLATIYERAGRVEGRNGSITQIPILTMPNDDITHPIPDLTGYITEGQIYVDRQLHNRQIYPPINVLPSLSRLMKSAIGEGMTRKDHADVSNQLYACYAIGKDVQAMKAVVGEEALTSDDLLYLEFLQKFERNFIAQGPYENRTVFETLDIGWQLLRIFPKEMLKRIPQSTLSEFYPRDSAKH
UniProt P15336: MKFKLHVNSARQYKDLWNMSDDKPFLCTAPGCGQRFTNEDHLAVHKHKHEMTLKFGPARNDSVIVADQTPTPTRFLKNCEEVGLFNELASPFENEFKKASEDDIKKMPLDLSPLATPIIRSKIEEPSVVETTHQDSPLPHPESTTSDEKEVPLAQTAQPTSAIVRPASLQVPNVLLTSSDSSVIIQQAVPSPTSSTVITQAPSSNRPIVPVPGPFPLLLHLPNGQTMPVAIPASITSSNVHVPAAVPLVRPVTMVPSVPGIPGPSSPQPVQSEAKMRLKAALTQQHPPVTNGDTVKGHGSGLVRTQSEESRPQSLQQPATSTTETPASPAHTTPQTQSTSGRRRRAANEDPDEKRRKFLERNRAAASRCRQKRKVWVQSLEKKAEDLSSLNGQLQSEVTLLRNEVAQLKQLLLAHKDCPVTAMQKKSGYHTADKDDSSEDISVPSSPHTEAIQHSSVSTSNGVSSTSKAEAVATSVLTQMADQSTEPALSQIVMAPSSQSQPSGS
UniProt Q9Y487, whole entry, looked up: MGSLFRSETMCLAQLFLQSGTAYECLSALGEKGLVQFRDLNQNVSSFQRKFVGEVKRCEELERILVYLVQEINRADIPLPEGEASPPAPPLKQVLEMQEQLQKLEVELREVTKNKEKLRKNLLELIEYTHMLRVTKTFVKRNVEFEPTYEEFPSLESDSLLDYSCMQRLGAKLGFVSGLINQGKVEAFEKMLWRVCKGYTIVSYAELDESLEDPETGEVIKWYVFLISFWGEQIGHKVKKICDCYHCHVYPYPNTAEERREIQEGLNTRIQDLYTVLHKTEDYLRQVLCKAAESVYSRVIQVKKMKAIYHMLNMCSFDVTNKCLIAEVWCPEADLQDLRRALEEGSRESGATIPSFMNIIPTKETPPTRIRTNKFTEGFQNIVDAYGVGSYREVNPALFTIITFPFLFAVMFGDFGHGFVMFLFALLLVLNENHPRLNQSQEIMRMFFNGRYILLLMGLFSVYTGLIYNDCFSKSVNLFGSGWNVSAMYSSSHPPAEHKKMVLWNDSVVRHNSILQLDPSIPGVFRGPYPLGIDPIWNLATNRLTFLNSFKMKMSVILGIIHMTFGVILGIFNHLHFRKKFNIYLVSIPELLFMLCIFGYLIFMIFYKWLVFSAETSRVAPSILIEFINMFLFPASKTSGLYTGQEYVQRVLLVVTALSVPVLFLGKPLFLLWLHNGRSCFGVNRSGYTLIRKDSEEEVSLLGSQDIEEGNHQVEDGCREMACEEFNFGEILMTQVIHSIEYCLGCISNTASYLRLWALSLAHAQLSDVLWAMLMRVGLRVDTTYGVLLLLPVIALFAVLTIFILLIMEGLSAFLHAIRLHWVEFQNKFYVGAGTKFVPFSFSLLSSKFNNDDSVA
UniProt Q9H1Y0: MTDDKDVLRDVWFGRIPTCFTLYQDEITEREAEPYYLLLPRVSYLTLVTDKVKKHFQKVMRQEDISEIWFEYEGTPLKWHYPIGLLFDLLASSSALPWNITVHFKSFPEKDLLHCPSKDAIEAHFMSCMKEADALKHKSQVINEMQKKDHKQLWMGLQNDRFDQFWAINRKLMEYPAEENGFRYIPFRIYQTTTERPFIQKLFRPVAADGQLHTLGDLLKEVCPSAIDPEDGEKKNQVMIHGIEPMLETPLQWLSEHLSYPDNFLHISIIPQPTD

Target	probe-labelled cysteine peptide fold change (10 µM)	probe-labelled cysteine peptide fold change (50 µM)
ASS1_P00966_331_FAELVYTGFWHSPECEFVR (UniProt P00966)	-0.00187	0.0576
ATP2C1_P98194_162_DLVPGDTVCLSVGDRVPADLR (UniProt P98194)	-0.125	-0.322
ATG16L2_Q8NAA4_319_YQIIPVCVAAR (UniProt Q8NAA4)	-0.12	-0.241
ATF7IP_Q6VMQ6_1228_ALPLPMACTLTQFVSGSK (UniProt Q6VMQ6)	0.114	0.118
ATP1A1_P05023_464_CIELCCGSVK (UniProt P05023)	0.0291	-0.539
ATP13A1_Q9HD20_18_AAAAAVGNAVPCGARPCGVRPDGQPK (UniProt Q9HD20)	-0.168	-0.519
ATP13A3_Q9H7F0_545_SQFVACMATCHSLTK (UniProt Q9H7F0)	0.0462	-0.178
ATP2A2_P16615_498_SMSVYCTPNKPSR (UniProt P16615)	0.0361	-0.101
ATG7_O95352_235_ITIGVYDPCNLAQYPGWPLR (UniProt O95352)	-0.184	0.104
ATG9A_Q7Z3C6_122_VTLPDAFLPAQVCSAR (UniProt Q7Z3C6)	0.167	0.186
ATRX_P46100_1242_IKPVTENLVLSSHTGFCQSSGDEALSK (UniProt P46100)	-0.15	-0.661
ASH2L_Q9UBL3_362_LELDCWAGKPIPGDLYR (UniProt Q9UBL3)	-0.104	0.0484
ATP6V1B2_P21281_425_KDHADVSNQLYACYAIGK (UniProt P21281)	-0.0734	-0.029
ATF2_P15336_79_NCEEVGLFNELASPFENEFK (UniProt P15336)	0.0486	-0.425
ATP6V0A2_Q9Y487_58_RCEELER (UniProt Q9Y487)	-0.446	0.223
ATG5_Q9H1Y0_115_DLLHCPSK (UniProt Q9H1Y0)	-0.167	-0.0605

Some of the entries above in a different format.

| Target | probe-labelled cysteine peptide fold change (10 µM) | probe-labelled cysteine peptide fold change (50 µM) |
| --- | --- | --- |
| ATP13A1_Q9HD20_18_AAAAAVGNAVPCGARPCGVRPDGQPK (UniProt Q9HD20) | -0.168 | -0.519 |
| ATF2_P15336_79_NCEEVGLFNELASPFENEFK (UniProt P15336) | 0.0486 | -0.425 |
